{"source": "PubChem BioAssay AID686938 (Drosophila RNAi Screening Center, 2013)", "screen": "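Looking for CRAC channel components and the factors controlling them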 (primary screen)", "system": "Drosophila S2R+ cells", "reagent": "long dsRNA against Drosophila genes, about 0.25 µg dsRNA per well, roughly 10,000 cells", "time to read-out": "5 days of knock-down before the calcium assay", "treatment": "thapsigargin (SERCA pump blocker) to empty calcium stores; entry signal taken 4 min after adding it", "measurement": "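Per-well fluo-4 fluorescence in two replicates, unnormalised, measured in resting cells and 4 min after store depletion by the SERCA blocker thapsigargin; ratio of the two present in few wells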", "scale": "calcium entry signal: higher = stronger calcium signal after store depletion; resting calcium signal: higher = higher resting calcium signal", "units": "calcium entry signal in fluorescence units; resting calcium signal in fluorescence units", "rule for the call": "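Hit if the duplicate-averaged plate z-score for entry over resting signal is under −3; wells with weak total dye signal (Fmax z < −2) or more than 5 off-targets removed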", "calls": "active = strongly reduced calcium entry; inactive = no strong reduction", "note": "The screen tested about 23,000 reagents; shown is a random part of those that have a named target and a result. In the full data, 75 (0.33%) are marked active. 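Raw plate signals without normalisation; calls rest on plate z-scores that were not deposited; ratio present for only 364 wells.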 Not stated in the record: the dose of the treatment."}
{"predicted target": "Tehao", "DRSC id": "DRSC03449", "calcium entry signal, replicate 1": 3.36e7, "calcium entry signal, replicate 2": 2.23e7, "resting calcium signal, replicate 1": 1.54e7, "resting calcium signal, replicate 2": 1.02e7, "Call": "inactive"}
{"predicted target": "CG1701", "DRSC id": "DRSC06641", "calcium entry signal, replicate 1": 3.49e7, "calcium entry signal, replicate 2": 3.22e7, "resting calcium signal, replicate 1": 1.59e7, "resting calcium signal, replicate 2": 2.13e7, "Call": "inactive"}
{"predicted target": "Mtr4", "DRSC id": "DRSC03560", "calcium entry signal, replicate 1": 2.13e7, "resting calcium signal, replicate 1": 1.61e7, "Call": "inactive"}
{"predicted target": "Cyp1", "DRSC id": "DRSC20234", "calcium entry signal, replicate 1": 4.09e7, "calcium entry signal, replicate 2": 4.59e7, "resting calcium signal, replicate 1": 1.83e7, "resting calcium signal, replicate 2": 2.33e7, "Call": "inactive"}

An excerpt taken from the entries so far, for reference:
{"predicted target": "CG1701", "DRSC id": "DRSC06641", "calcium entry signal, replicate 1": 3.49e7, "calcium entry signal, replicate 2": 3.22e7, "resting calcium signal, replicate 1": 1.59e7, "resting calcium signal, replicate 2": 2.13e7, "Call": "inactive"}
{"predicted target": "Mtr4", "DRSC id": "DRSC03560", "calcium entry signal, replicate 1": 2.13e7, "resting calcium signal, replicate 1": 1.61e7, "Call": "inactive"}

More records follow.
{"predicted target": "SIFa", "DRSC id": "DRSC04480", "calcium entry signal, replicate 1": 4.41e7, "calcium entry signal, replicate 2": 4.86e7, "resting calcium signal, replicate 1": 2.09e7, "resting calcium signal, replicate 2": 2.28e7, "Call": "inactive"}
{"predicted target": "dlg1", "DRSC id": "DRSC18895", "calcium entry signal, replicate 1": 1.50e7, "calcium entry signal, replicate 2": 2.26e7, "resting calcium signal, replicate 1": 8.08e6, "resting calcium signal, replicate 2": 1.09e7, "Call": "inactive"}
{"predicted target": "dlg1", "DRSC id": "DRSC18896", "calcium entry signal, replicate 1": 1.75e7, "calcium entry signal, replicate 2": 3.33e7, "resting calcium signal, replicate 1": 8.90e6, "resting calcium signal, replicate 2": 1.48e7, "Call": "inactive"}
{"predicted target": "dlg1", "DRSC id": "DRSC19767", "calcium entry signal, replicate 1": 2.87e7, "calcium entry signal, replicate 2": 4.53e7, "resting calcium signal, replicate 1": 1.51e7, "resting calcium signal, replicate 2": 2.22e7, "Call": "inactive"}
{"predicted target": "dlg1", "DRSC id": "DRSC20324", "calcium entry signal, replicate 1": 3.03e7, "calcium entry signal, replicate 2": 2.80e7, "resting calcium signal, replicate 1": 1.41e7, "resting calcium signal, replicate 2": 1.31e7, "Call": "inactive"}
{"predicted target": "alpha-Est6", "DRSC id": "DRSC12618", "calcium entry signal, replicate 1": 3.03e7, "calcium entry signal, replicate 2": 3.46e7, "resting calcium signal, replicate 1": 1.24e7, "resting calcium signal, replicate 2": 1.53e7, "Call": "inactive"}
{"predicted target": "CG15443", "DRSC id": "DRSC00455", "calcium entry signal, replicate 1": 2.21e7, "calcium entry signal, replicate 2": 2.03e7, "resting calcium signal, replicate 1": 1.10e7, "resting calcium signal, replicate 2": 9.49e6, "Call": "inactive"}
{"predicted target": "CG34325", "DRSC id": "DRSC19802", "calcium entry signal, replicate 1": 3.34e7, "calcium entry signal, replicate 2": 2.95e7, "resting calcium signal, replicate 1": 1.78e7, "resting calcium signal, replicate 2": 1.52e7, "Call": "inactive"}
{"predicted target": "CG34325", "DRSC id": "DRSC20200", "calcium entry signal, replicate 1": 3.55e7, "calcium entry signal, replicate 2": 3.59e7, "resting calcium signal, replicate 1": 1.78e7, "resting calcium signal, replicate 2": 1.61e7, "Call": "inactive"}
{"predicted target": "NK7.1", "DRSC id": "DRSC16755", "calcium entry signal, replicate 1": 3.01e7, "calcium entry signal, replicate 2": 3.47e7, "resting calcium signal, replicate 1": 1.39e7, "resting calcium signal, replicate 2": 1.63e7, "Call": "inactive"}
